Source: PubChem BioAssay AID1508597 (Cure First, 2020)
This is a random part of about 2,100 reagents. 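Calls flag viability under 80% in either arm, not effects specific to rucaparib; the reference for percent is not stated.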 Unmarked entries are inactive. Not given: the 100% reference.

Screen: 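Genes whose silencing sensitises or protects ovarian cancer cells against rucaparib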 (primary screen)
Cell system: human ovarian carcinoma lines grown from tumours: OCI-P5x (papillary serous) and OCI-C5x (clear cell)
Reagent: siRNA pool against human genes, 1.25 pmol siRNA per well
Time to read-out: 72 h or 96 h, depending on the cell culture
Treatment: rucaparib 20 µM (about IC30) or vehicle, present until read-out
Read-out: 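Luminescent ATP-based viability assay read 72 or 96 h after transfection, depending on culture, given as normalised percent viability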
Scale: viability, normalised: higher = more viable cells remaining
Call rule: 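Active when normalised viability falls below 80 percent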
Calls: active = viability under 80%; inactive = viability 80% or more

gene	rucaparib or vehicle	cell line	technical replicate	viability, normalised (%)
DDX23	Rucaparib	OCI-C5x (clear cell)	1	61.7 (active)
DDX23	Rucaparib	OCI-C5x (clear cell)	2	45.7 (active)
DDX23	Rucaparib	OCI-C5x (clear cell)	3	40.4 (active)
DDX23	Rucaparib	OCI-P5x (serous)	1	59.7 (active)
DDX23	Rucaparib	OCI-P5x (serous)	2	60.4 (active)
DDX23	Rucaparib	OCI-P5x (serous)	3	60.4 (active)
DDX23	Vehicle	OCI-C5x (clear cell)	1	28.2 (active)
DDX23	Vehicle	OCI-C5x (clear cell)	2	48.6 (active)
DDX23	Vehicle	OCI-C5x (clear cell)	3	36.6 (active)
DDX23	Vehicle	OCI-P5x (serous)	1	61.2 (active)
DDX23	Vehicle	OCI-P5x (serous)	2	56.5 (active)
DDX23	Vehicle	OCI-P5x (serous)	3	70.3 (active)
PHIP	Rucaparib	OCI-C5x (clear cell)	1	50.4 (active)
PHIP	Rucaparib	OCI-C5x (clear cell)	2	46.6 (active)
PHIP	Rucaparib	OCI-C5x (clear cell)	3	41.6 (active)
PHIP	Rucaparib	OCI-P5x (serous)	1	48.8 (active)
PHIP	Rucaparib	OCI-P5x (serous)	2	38.8 (active)
PHIP	Rucaparib	OCI-P5x (serous)	3	49.5 (active)
PHIP	Vehicle	OCI-C5x (clear cell)	1	51.3 (active)
PHIP	Vehicle	OCI-C5x (clear cell)	2	49.7 (active)
PHIP	Vehicle	OCI-C5x (clear cell)	3	58.7 (active)
PHIP	Vehicle	OCI-P5x (serous)	1	62.9 (active)
PHIP	Vehicle	OCI-P5x (serous)	2	60.8 (active)
PHIP	Vehicle	OCI-P5x (serous)	3	81.6

A stretch from the list above:
gene	rucaparib or vehicle	cell line	technical replicate	viability, normalised (%)
DDX23	Rucaparib	OCI-P5x (serous)	3	60.4 (active)
DDX23	Vehicle	OCI-C5x (clear cell)	1	28.2 (active)
DDX23	Vehicle	OCI-C5x (clear cell)	2	48.6 (active)
DDX23	Vehicle	OCI-C5x (clear cell)	3	36.6 (active)
DDX23	Vehicle	OCI-P5x (serous)	1	61.2 (active)
DDX23	Vehicle	OCI-P5x (serous)	2	56.5 (active)

Additional results follow:
gene	rucaparib or vehicle	cell line	technical replicate	viability, normalised (%)
LRWD1	Rucaparib	OCI-C5x (clear cell)	1	37.4 (active)
LRWD1	Rucaparib	OCI-C5x (clear cell)	2	39.2 (active)
LRWD1	Rucaparib	OCI-C5x (clear cell)	3	42.5 (active)
LRWD1	Rucaparib	OCI-P5x (serous)	1	54.7 (active)
LRWD1	Rucaparib	OCI-P5x (serous)	2	52.5 (active)
LRWD1	Rucaparib	OCI-P5x (serous)	3	55.4 (active)
LRWD1	Vehicle	OCI-C5x (clear cell)	1	44.4 (active)
LRWD1	Vehicle	OCI-C5x (clear cell)	2	46.3 (active)
LRWD1	Vehicle	OCI-C5x (clear cell)	3	39.4 (active)
LRWD1	Vehicle	OCI-P5x (serous)	1	67.5 (active)
LRWD1	Vehicle	OCI-P5x (serous)	2	71.1 (active)
LRWD1	Vehicle	OCI-P5x (serous)	3	69.1 (active)
SUCLA2	Rucaparib	OCI-C5x (clear cell)	1	47.1 (active)
SUCLA2	Rucaparib	OCI-C5x (clear cell)	2	88.7
SUCLA2	Rucaparib	OCI-C5x (clear cell)	3	53.3 (active)
SUCLA2	Rucaparib	OCI-P5x (serous)	1	58.3 (active)
SUCLA2	Rucaparib	OCI-P5x (serous)	2	78.1 (active)
SUCLA2	Rucaparib	OCI-P5x (serous)	3	82.8
SUCLA2	Vehicle	OCI-C5x (clear cell)	1	77.2 (active)
SUCLA2	Vehicle	OCI-C5x (clear cell)	2	74.4 (active)
SUCLA2	Vehicle	OCI-C5x (clear cell)	3	68.1 (active)
SUCLA2	Vehicle	OCI-P5x (serous)	1	77.8 (active)
SUCLA2	Vehicle	OCI-P5x (serous)	2	84.4
SUCLA2	Vehicle	OCI-P5x (serous)	3	81.2
